The values that follow come from PMC11191887, “Abstracts From the First Annual Research Day Hosted by the Michigan State University College of Osteopathic Medicine, Novi, Michigan, May 15, 2023” (Spartan Medical Research Journal, 2024).

Chains of the proteins cited; added tags and fusions are not shown.
UniProt Q04206: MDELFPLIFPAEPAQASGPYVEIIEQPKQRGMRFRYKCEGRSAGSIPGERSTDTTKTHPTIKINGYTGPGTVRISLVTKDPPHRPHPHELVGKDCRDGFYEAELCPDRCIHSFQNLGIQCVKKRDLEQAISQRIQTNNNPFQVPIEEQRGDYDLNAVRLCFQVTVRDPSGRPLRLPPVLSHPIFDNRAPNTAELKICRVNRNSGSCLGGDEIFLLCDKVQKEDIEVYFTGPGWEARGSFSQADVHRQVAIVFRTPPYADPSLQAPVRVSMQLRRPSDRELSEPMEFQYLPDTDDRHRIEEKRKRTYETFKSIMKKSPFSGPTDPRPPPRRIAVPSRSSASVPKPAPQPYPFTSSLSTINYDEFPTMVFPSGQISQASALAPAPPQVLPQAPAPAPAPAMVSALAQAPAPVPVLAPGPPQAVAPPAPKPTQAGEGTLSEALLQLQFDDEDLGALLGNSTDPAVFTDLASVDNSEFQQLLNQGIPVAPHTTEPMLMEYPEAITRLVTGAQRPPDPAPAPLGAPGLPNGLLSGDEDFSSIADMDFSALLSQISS

No constants are given. Whether binding was seen depends on the method and setting.

In the assay the target is RelA subunit of NF-κB (UniProt Q04206). The experiment in a line: fluorescence polarisation + SEC + native gel or EMSA; recombinant biochemical techniques; conditions not given; both purified. (In general: In fluorescence polarisation assays a small probe gives low polarisation when free and higher when bound to something large.)

B1: Pirin (protein, UniProt O00625 1-290)
chain: MGSSKKVTLSVLSREQSEGVGARVRRSIGRPELKNLDPFLLFDEFKGGRPGGFPDHPHRGFETVSYLLEGGSMAHEDFCGHTGKMNPGDLQWMTAGRGILHAEMPCSEEPAHGLQLWVNLRSSEKMVEPQYQELKSEEIPKPSKDGVTVAVISGEALGIKSKVYTRTPTLYLDFKLDPGAKHSQPIPKGWTSFIYTISGDVYIGPDDAQQKIEPHHTAVLGEGDSVQVENKDPKRSHFVLIAGEPLREPVIQHGPFVMNTNEEISQAILDFRNAKNGFERAKTWKSKIGN
Regarding B1, the binding entry is recorded as “no binding”.
